Laboratory results: paper doi:10.1101/2021.06.28.447216
These are yes or no findings as the source states them, for the method shown. Some entries that bind do so weakly or less than the wild type. Sequences can lack the tags named with a protein.

The chains behind the UniProt entries cited, without tags or fusion partners.
UniProt P45973: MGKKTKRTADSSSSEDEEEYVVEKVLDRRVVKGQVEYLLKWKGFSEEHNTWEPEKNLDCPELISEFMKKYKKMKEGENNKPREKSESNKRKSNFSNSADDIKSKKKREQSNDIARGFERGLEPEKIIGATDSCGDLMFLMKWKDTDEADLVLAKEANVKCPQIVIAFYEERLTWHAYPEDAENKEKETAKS
UniProt P83916: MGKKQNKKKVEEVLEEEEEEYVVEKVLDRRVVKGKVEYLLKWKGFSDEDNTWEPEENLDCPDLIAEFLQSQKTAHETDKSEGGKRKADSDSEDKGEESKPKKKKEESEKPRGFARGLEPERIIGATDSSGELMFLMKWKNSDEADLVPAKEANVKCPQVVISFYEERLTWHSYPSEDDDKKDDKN

Biological target: T1, mCherry-LacR-tagged version of POGZ (human) (UniProt Q7Z3K3)
T1 sequence: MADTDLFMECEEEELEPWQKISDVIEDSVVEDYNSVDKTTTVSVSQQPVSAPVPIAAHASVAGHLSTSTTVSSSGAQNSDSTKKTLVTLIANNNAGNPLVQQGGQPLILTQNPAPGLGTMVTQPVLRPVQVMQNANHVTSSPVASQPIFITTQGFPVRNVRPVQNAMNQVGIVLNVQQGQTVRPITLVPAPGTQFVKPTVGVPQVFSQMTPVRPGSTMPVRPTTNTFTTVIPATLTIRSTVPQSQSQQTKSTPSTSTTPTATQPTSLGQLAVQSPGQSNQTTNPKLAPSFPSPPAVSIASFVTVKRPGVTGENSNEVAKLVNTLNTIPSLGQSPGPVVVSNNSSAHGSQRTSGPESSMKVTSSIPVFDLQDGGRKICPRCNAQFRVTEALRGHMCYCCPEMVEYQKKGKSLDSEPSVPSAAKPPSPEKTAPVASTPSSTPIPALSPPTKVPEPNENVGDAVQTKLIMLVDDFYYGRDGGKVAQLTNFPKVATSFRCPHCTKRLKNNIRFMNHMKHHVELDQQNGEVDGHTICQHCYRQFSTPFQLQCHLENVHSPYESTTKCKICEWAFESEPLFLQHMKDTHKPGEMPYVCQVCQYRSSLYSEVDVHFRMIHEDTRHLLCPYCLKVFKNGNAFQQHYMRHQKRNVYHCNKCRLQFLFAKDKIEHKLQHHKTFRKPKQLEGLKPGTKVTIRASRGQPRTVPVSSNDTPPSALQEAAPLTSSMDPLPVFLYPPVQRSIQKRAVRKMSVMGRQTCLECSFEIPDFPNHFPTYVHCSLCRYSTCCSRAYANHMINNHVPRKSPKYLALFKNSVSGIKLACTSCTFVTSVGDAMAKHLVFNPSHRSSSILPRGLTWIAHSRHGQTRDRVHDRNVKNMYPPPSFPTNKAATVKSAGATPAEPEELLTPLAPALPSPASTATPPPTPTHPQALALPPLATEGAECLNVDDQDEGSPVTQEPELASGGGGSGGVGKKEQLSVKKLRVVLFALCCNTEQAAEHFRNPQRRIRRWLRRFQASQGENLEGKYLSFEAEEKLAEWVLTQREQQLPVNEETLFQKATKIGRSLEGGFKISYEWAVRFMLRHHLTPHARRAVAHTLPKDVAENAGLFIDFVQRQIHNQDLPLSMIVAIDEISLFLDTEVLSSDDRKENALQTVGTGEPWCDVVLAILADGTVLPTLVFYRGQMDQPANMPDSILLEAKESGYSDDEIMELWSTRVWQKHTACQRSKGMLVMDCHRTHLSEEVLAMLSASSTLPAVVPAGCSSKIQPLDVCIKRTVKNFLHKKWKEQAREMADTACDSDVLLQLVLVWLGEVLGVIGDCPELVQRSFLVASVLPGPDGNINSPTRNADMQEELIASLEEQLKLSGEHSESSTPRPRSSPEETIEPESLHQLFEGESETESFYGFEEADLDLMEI
Experiment: LacO/LacR tethering assay with immunofluorescence

binding	Substance
binds	endogenous HP1-α (from UniProt P45973 1-191)
binds	endogenous HP1-β (from UniProt P83916 1-185)
